In all, about 580,000 compounds went through this assay and about 6,100 (1.1%) were called active. The shares of active, inactive and inconclusive entries below differ from those in the screen. The call rests on the fitted dose curve; in most records, active means well fitted inhibition curve with a large enough effect; inconclusive means small, poorly fitted or top-dose-only effect, or another doubt; inactive means no such curve, though single readings can be large or run the other way. Potencies beside an inconclusive call are fits to weak or partial responses and may not hold up.
Each compound was assayed against Polyunsaturated fatty acid lipoxygenase ALOX12 (Homo sapiens) (UniProt P18054) (assay: Primary qHTS assay for inhibitors of human arachidonate 12S-lipoxygenase (ALOX12): Round 2). Conditions: purified 12hLO, xylenol orange hydroperoxide absorbance; activity change, negative = inhibition: at 108 µM (top of the series) unless noted.
How it was run: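 Hydroperoxide product was detected by ferrous iron/xylenol orange as the 573 to 405 nm absorbance ratio. Arachidonic acid at 40 uM (final) was turned over for 30 min at room temperature by 150 nM human 12hLO, pH 7.0 Hepes buffer, after 15 min compound preincubation.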
On the % scale 0 is the no-effect control and ±100 the full control effect; potency means the concentration at half of the fitted maximal effect.

Sequences of proteins named here, by UniProt entry; tags and fusion partners are left off. A change or cut given only in a name is not applied to a line headed by its entry.
UniProt P18054: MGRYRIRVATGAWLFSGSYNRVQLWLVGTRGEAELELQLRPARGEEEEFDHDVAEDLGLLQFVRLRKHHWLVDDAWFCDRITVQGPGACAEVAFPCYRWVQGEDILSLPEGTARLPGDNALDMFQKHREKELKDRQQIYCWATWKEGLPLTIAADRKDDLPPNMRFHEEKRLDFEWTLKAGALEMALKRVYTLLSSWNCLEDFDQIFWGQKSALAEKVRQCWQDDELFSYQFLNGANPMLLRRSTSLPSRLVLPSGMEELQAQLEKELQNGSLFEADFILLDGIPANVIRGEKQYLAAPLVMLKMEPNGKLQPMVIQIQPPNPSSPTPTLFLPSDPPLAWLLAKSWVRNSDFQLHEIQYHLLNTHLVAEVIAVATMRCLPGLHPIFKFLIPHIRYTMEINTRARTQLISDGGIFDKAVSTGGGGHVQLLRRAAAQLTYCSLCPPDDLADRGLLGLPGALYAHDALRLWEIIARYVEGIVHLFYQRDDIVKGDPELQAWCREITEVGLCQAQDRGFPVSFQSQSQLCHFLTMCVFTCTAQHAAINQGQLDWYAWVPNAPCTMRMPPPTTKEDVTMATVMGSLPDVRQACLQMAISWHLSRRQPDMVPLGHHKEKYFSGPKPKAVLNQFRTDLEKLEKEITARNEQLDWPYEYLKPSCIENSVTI

Row | Structure (SMILES) | Potency | activity change, negative = inhibition
1 | CCCOc1c(Cl)cc(/C=C/C(=O)c2ccc(O)c(OC)c2)cc1OCC | inconclusive: 39.8 µM [inhibitor, partial curve, poor fit] | 
2 | CC(C)(C)c1ccc(-c2n[nH]c(=S)n2CC2CCCO2)cc1 (stereo not given) | inconclusive: 14.1 µM [inhibitor, partial curve, poor fit] | 
3 | O=C(/C=C/c1ccco1)NCC1COc2ccccc2O1 (stereo not given) | inconclusive: 70.8 µM [inhibitor, partial curve, poor fit] | 
4 | O=C(O)C1CC(Br)C(Br)CC1C(=O)O (stereo not given) | inconclusive: 112 µM [inhibitor, partial curve, poor fit] | 
5 | O=C(c1cc(F)ccc1F)N1CCN(C(=O)c2nnn3c2COC(c2ccc(Cl)cc2)C3)CC1 (stereo not given) | inconclusive: 35.5 µM [inhibitor, partial curve, poor fit] | 
6 | O=S(=O)(c1ccc(Sc2ccc(Br)cc2)nc1)N1CCCCC1 | inconclusive: 112 µM [inhibitor, partial curve, poor fit] | 
7 | Cc1cc(C)cc(Nc2nc(N)c(C#N)c(CC#N)c2C#N)c1 |  | inactive: 38.1%
8 | COc1ccccc1NC(=O)Nc1nnc(N(C)C2CCCCC2)s1 |  | inactive: 69.1%
9 | O=C(Nc1ccc2oc(-c3ccccc3)nc2c1)c1ccc2c(c1)OCCO2 |  | inactive: -30.1%
10 | COc1cc(CNCc2cc(OC)ccc2OC)cc(OC)c1 | inconclusive: 8.91 µM [inhibitor, partial curve, poor fit] | 
11 | Cc1cc2oc(C(=O)Nc3sc4c(c3C(=O)NCc3ccccc3)CCCC4)cc(=O)c2cc1C |  | inactive: 0.135%
12 | Cc1nnc2ccc(NCc3ccc(F)cc3)nn12 | inconclusive: 28.2 µM [inhibitor, partial curve, poor fit] | 
13 | COc1ccc(/C=C(/C#N)C(=O)Nc2ccccc2C)cc1C(=O)O |  | inactive: 4.13%
14 | Cc1oc(-c2ccccc2)nc1CC(=O)Nc1ccc(F)cc1Cl | inconclusive: 112 µM [inhibitor, single point] | 
15 | COc1ccc(NC(=S)NC2CC3CCC(C2)N3Cc2ccco2)cc1 (stereo not given) |  | inactive: -11.7%
16 | CN(C)c1ccc(CNC(=O)CN2C(=O)CCn3nc(-c4cn(C)c5ccccc45)cc32)cc1 | inconclusive: 28.2 µM [inhibitor, partial curve, poor fit] | 
17 | Cc1ccc(NC(=O)c2nccnc2C(=O)O)cc1C | inconclusive: 10 µM [inhibitor, partial curve, poor fit] | 
18 | CCc1ccc2oc(=O)cc(-c3oc4ccccc4c3NC(C)=O)c2c1 | inconclusive: 35.5 µM [inhibitor, partial curve] | 
19 | CCC(C)NC(=O)CSc1nnc(-c2c[nH]c3ccccc23)o1 (stereo not given) | inconclusive: 126 µM [inhibitor, single point] | 
20 | COC(=O)c1ccc(OC(=O)c2cnccn2)cc1 | inconclusive: 10 µM [inhibitor, full curve, poor fit] | 
21 | COc1ccccc1N1CCN([C@H]2[C@@H]3OC[C@@H](O3)[C@@H](N(CC3CC3)CC3CC3)[C@@H]2O)CC1 | inconclusive: 0.631 µM [inhibitor, full curve, poor fit] | 
22 | O=C(Cn1nnc2ccccc21)N1CCCCC1 |  | inactive: 3.79%

Given with tabs: 6 of the compounds above
Row	Structure (SMILES)	Potency	activity change, negative = inhibition
3	O=C(/C=C/c1ccco1)NCC1COc2ccccc2O1 (stereo not given)	inconclusive: 70.8 µM [inhibitor, partial curve, poor fit]	
4	O=C(O)C1CC(Br)C(Br)CC1C(=O)O (stereo not given)	inconclusive: 112 µM [inhibitor, partial curve, poor fit]	
5	O=C(c1cc(F)ccc1F)N1CCN(C(=O)c2nnn3c2COC(c2ccc(Cl)cc2)C3)CC1 (stereo not given)	inconclusive: 35.5 µM [inhibitor, partial curve, poor fit]	
6	O=S(=O)(c1ccc(Sc2ccc(Br)cc2)nc1)N1CCCCC1	inconclusive: 112 µM [inhibitor, partial curve, poor fit]	
7	Cc1cc(C)cc(Nc2nc(N)c(C#N)c(CC#N)c2C#N)c1		inactive: 38.1%
8	COc1ccccc1NC(=O)Nc1nnc(N(C)C2CCCCC2)s1		inactive: 69.1%

Further compounds

Row | Structure (SMILES) | Potency | activity change, negative = inhibition
23 | CCN1C(Nc2ccccc2)=NC[C@@H]1CC(C)C |  | inactive: 12.4%
24 | CN(C)C[C@@H]1CN(S(C)(=O)=O)C[C@H]1NC(=O)C1(C)CCOCC1 |  | inactive: -0.758%
25 | c1ccc(COc2ccccc2CNCc2cccnc2)cc1 | inconclusive: 2.51 µM [inhibitor, full curve, poor fit] | 
26 | NC(=S)Cc1ccc(Cl)cc1Cl |  | inactive: -141%
27 | Fc1ccccc1N1CCN(c2ncnc3onc(-c4cccc(Cl)c4)c23)CC1 | inconclusive: 56.2 µM [inhibitor, partial curve, poor fit] | 
28 | Cc1c(NC(=O)Nc2ccc(Cl)c(C(F)(F)F)c2)c(=O)n(-c2ccccc2)n1C | inconclusive: 126 µM [inhibitor, partial curve, poor fit] | 
29 | COc1ccc(C(=O)NC(C(=O)N2CCCCC2)C2CCN(C(=O)C3CC3)CC2)cc1 (stereo not given) |  | inactive: 50.6%
30 | COc1ccc(C(=O)/C(C#N)=C\c2ccc(Cl)cc2)cc1 | inconclusive: 12.6 µM [inhibitor, partial curve, poor fit] | 
31 | CC1=C(C#N)c2nc(N)c(C#N)c(C)c2/C1=C\c1ccc(OCC(=O)O)c(Cl)c1 | inconclusive: 50.1 µM [inhibitor, partial curve, poor fit] | 
32 | CCOC(=O)C1CCCN(C(=O)c2ccc3ncsc3c2)C1 (stereo not given) |  | inactive: -1.62%
33 | CC1=C[C@@H](CNS(=O)(=O)c2ccccc2)[C@H](C(C)C)C[C@H]1CC(=O)NCc1ccccn1 | inconclusive: 17.8 µM [inhibitor, full curve] | 
34 | O=C(Nc1nnc(-c2ccccc2)o1)C1CCN(S(=O)(=O)c2cccc(Cl)c2Cl)CC1 | inconclusive: 39.8 µM [inhibitor, partial curve, poor fit] | 
35 | COc1ccc(Cn2c(C)nc3c(c2=O)c2nc4ccccc4nc2n3Cc2ccco2)cc1 | inconclusive: 50.1 µM [inhibitor, partial curve, poor fit] | 
36 | CCc1nn(-c2ccccc2)c(=S)c2ccccc12 |  | inactive: -15.9%
37 | COc1ccc(COCC(O)CNC(=O)CC(C)C)cc1 (stereo not given) |  | inactive: -48.7%
38 | COc1ccc(CN(C)C(=O)CNC(=O)c2sc3ccccc3c2Cl)c(OC)c1OC |  | inactive: 1.36%
39 | CCNc1c(NS(=O)(=O)c2ccc(F)c(F)c2)c(=O)oc2ccccc12 | inconclusive: 50.1 µM [inhibitor, partial curve, poor fit] | 
40 | Cn1c(=O)c2c(-c3ccccc3Br)n(Cc3ccccc3)cc2n(C)c1=O | inconclusive: 0.501 µM [inhibitor, partial curve, poor fit] | 
41 | Cc1cc(Sc2ccc([N+](=O)[O-])cn2)ccc1Br | inconclusive: 112 µM [inhibitor, single point] | 
42 | Cc1cccc(Cl)c1NC(=O)N1CCCN(c2nc3ccc(Cl)cc3s2)CC1 | inconclusive: 89.1 µM [inhibitor, single point] | 
43 | COc1ccc(-c2cc3c(=O)n(CC(=O)Nc4cc(C)ccc4C)ccn3n2)cc1 | inconclusive: 126 µM [inhibitor, partial curve, poor fit] | 
44 | CCOc1ccc(NC(=O)CSCc2cc(=O)n3cccc(C)c3n2)cc1 | inconclusive: 141 µM [inhibitor, single point] | 

Row | Structure (SMILES) | Potency | activity change, negative = inhibition
45 | COc1ccc(-n2c(SCC(=O)NC3CCCCC3)nc3c([nH]c4ccccc43)c2=O)cc1 |  | inactive: -6.53%
46 | Cc1ccc(S(=O)(=O)N2CCN(C(=O)c3cccs3)CC2)cc1C |  | inactive: 0.0692%
47 | Cc1cccc(C(C)C)c1NC(=O)COC(=O)CCC(=O)N(CC(C)C)c1c(N)n(CC(C)C)c(=O)[nH]c1=O | inconclusive: 2 µM [inhibitor, full curve, poor fit] | 
48 | c1ncc(CCCC2CCNCC2)[nH]1 | inconclusive: 35.5 µM [inhibitor, partial curve, poor fit] | 
49 | CCOc1ccc(CN2CCSCC2)cc1 | inconclusive: 0.501 µM [inhibitor, full curve, poor fit] | 
50 | Cc1ccc(S(=O)(=O)C(CNC(=O)COc2ccc(Cl)cc2)c2ccco2)cc1 (stereo not given) | inconclusive: 112 µM [inhibitor, partial curve, poor fit] | 
51 | O=c1[nH]c2cc3c(cc2cc1C(c1nnnn1Cc1ccccc1)N1CCCCCC1)OCCO3 (stereo not given) |  | inactive: -8.11%
52 | O=C(C1=C(O)C(=O)N(c2nncs2)C1c1ccccc1)c1cccs1 (stereo not given) | active: 0.562 µM | 
53 | COc1ccc(NC(=S)Nc2ccc(C)c(Cl)c2)cc1OC | inconclusive: 44.7 µM [inhibitor, partial curve, poor fit] | 
54 | Cc1ccc(NC(=O)c2ccc3c(c2)NC(=O)c2ccccc2S3)cc1 |  | inconclusive: -32.1% [inhibitor]
55 | CCC1S/C(=C(\C#N)C(=O)NCc2ccco2)N(c2ccc(Br)cc2)C1=O (stereo not given) | inconclusive: 56.2 µM [inhibitor, partial curve, poor fit] | 
56 | O=c1c(C(c2ccccc2)c2c(O)nc3n(c2=O)CCS3)c(O)nc2n1CCS2 | inconclusive: 39.8 µM [inhibitor, partial curve, poor fit] | 
57 | CCN(CC)CCCNC(=O)C(=O)Nc1ccc2nc3n(c(=O)c2c1)CCCCC3 |  | inactive: -21.8%
58 | Cc1ccccc1C(=O)Nc1nc(=S)ss1 | inconclusive: 15.8 µM [inhibitor, partial curve, poor fit] | 
59 | N#Cc1c(-c2cccc(Cl)c2)[nH]c(=S)[nH]c1=O | inconclusive: 31.6 µM [inhibitor, partial curve, poor fit] | 
60 | O=C(Nc1ccc(F)cc1)Oc1ccc[nH]c1=O | inconclusive: 4.47 µM [inhibitor, full curve, poor fit] | 
61 | COc1ccc(-n2c(=O)c(C)nc3cnc(N4CCNCC4)nc32)cc1 | inconclusive: 70.8 µM [inhibitor, partial curve, poor fit] | 
62 | COC(=O)c1ccc(C23CC4(C2)[C@H](CN(Cc2ccc(-c5ccccc5)cc2)[C@@H]4c2ccccc2)C3c2ccc(Cl)nc2)cc1 (stereo not given in full) | inconclusive: 89.1 µM [inhibitor, single point] | 
63 | C#CCN[C@H]1C[C@@H]2c3[nH]c4ccccc4c3C[C@@H](C(=O)OC)N2[C@H](c2ccc(F)cc2)C1 | inconclusive: 70.8 µM [inhibitor, partial curve, poor fit] | 
64 | Cc1ccc(Cl)cc1NCC(=O)N1CCN(S(C)(=O)=O)CC1 |  | inactive: 1%
65 | O=C(O)Cn1c(=O)c2c3c(sc2n(Cc2ccc(F)cc2)c1=O)CCCC3 | inconclusive: 112 µM [inhibitor, partial curve, poor fit] | 
